Results on 11 molecules are retold here after article PMC5591944.

Sequences of proteins named here, by UniProt entry; tags and fusion partners are left off. A change or cut given only in a name is not applied to a line headed by its entry.
UniProt Q9LDU5: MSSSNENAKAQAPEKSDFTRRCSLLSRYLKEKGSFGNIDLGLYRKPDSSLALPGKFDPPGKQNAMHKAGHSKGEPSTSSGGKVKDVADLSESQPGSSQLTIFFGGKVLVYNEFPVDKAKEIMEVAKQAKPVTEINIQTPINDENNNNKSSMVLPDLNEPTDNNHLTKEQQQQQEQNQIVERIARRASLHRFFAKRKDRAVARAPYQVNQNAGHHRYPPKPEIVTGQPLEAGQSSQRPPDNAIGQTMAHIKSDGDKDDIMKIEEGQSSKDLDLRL
UniProt Q9S7M2: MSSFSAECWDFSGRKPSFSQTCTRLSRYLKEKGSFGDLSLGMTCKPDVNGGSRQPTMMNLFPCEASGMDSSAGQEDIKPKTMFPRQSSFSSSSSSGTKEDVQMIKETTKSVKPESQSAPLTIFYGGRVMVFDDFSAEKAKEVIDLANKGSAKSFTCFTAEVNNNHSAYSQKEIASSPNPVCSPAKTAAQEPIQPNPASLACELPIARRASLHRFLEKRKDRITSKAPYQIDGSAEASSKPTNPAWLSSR
UniProt Q9C9E3: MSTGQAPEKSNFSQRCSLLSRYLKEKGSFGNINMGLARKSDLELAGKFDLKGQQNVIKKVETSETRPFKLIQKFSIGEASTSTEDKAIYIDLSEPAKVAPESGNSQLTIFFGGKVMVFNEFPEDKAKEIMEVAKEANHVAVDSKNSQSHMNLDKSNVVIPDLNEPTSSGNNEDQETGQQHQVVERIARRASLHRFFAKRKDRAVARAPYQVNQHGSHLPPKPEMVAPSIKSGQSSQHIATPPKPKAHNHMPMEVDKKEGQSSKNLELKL
UniProt Q9C5K8: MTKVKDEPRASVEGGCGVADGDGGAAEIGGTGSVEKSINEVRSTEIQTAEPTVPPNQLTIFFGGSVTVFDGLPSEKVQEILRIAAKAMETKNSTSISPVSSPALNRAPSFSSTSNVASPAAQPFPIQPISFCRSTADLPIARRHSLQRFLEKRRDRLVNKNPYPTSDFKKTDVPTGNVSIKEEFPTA

No constants are given. Whether binding was seen depends on the method and setting. Binding calls can cover weak binding; strength is not graded here. Sequences can lack the tags named with a protein. For part of these data: In cells and extracts the contact can be indirect.

T1: cLUC-MYB24 (Arabidopsis thaliana) (UniProt Q9SPG9)
T1 sequence: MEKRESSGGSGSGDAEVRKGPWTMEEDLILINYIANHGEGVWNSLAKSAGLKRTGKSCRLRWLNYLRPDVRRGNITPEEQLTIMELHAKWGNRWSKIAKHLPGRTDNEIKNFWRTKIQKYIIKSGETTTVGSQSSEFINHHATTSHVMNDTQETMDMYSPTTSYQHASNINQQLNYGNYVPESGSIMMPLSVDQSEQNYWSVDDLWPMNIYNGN

T2: cLUC-MYB21 (Arabidopsis thaliana) (UniProt Q9LK95)
T2 sequence: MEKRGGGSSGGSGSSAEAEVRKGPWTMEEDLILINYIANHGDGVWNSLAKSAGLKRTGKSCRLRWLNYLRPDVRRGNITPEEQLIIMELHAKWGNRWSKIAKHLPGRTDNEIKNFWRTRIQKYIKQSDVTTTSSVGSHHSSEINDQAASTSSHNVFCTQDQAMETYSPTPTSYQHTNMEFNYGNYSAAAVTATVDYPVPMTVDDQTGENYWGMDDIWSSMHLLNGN

B1: JAZ4 fused with the activation domain (AD) in pB42AD (protein, UniProt Q58G47 1-310)
chain: MERDFLGLGSKLSPITVKEETNEDSAPSRGMMDWSFSSKVGSGPQFLSFGTSQQETRVNTVNDHLLSSAAMDQNQRTYFSSLQEDRVFPGSSQQDQTTITVSMSEPNYINSFINHQHLGGSPIMAPPVSVFPAPTTIRSSSKPLPPQLTIFYAGSVLVYQDIAPEKAQAIMLLAGNGPHAKPVSQPKPQKLVHHSLPTTDPPTMPPSFLPSISYIVSETRSSGSNGVTGLGPTKTKASLASTRNNQTAAFSMAPTVGLPQTRKASLARFLEKRKERVINVSPYYVDNKSSIDCRTLMSECVSCPPAHHLH
B2: JAZ9 fused with the activation domain (AD) in pB42AD (protein, UniProt Q8W4J8 1-267)
chain: MERDFLGLSDKQYLSNNVKHEVNDDAVEERGLSTKAAREWGKSKVFATSSFMPSSDFQEAKAFPGAYQWGSVSAANVFRRCQFGGAFQNATPLLLGGSVPLPTHPSLVPRVASSGSSPQLTIFYGGTISVFNDISPDKAQAIMLCAGNGLKGETGDSKPVREAERMYGKQIHNTAATSSSSATHTDNFSRCRDTPVAATNAMSMIESFNAAPRNMIPSVPQARKASLARFLEKRKERLMSAMPYKKMLLDLSTGESSGMNYSSTSPT
B3: JAZ8 fused with the activation domain (AD) in pB42AD (protein, UniProt Q8LBM2 1-131)
chain: MKLQQNCDLELRLFPTSYDSDSSDTTSVVESTSSGNPQPNEESQRITIFYNGKMCFSSDVTHLQARSIISIASREMKTKSSSNGSDPPNKSTSFHHNQLPNPKASMKKSLQSFLQKRKIRIQATSPYHSRR
B4: JAZ11 fused with the activation domain (AD) in pB42AD (protein, UniProt Q9M246 1-238)
chain: MAEVNGDFPVPSFADGTGSVSAGLDLLVERSIHEARSTEPDASTQLTIIFGGSCRVFNGVPAQKVQEIIRIAFAGKQTKNVTGINPALNRALSFSTVADLPIARRRSLQRFLEKRRDRSTKPDGSMILPSQLTIIFGGSFSVFDGIPAEKVQEILHIAAAAKATETINLTSINPALKRAISFSNASTVACVSTADVPIARRRSLQRFFEKRRHRFVHTKPYSATTSEADKNETSPIVT
B5: JAZ7 fused with the activation domain (AD) in pB42AD (protein, UniProt O64687 1-148)
chain: MIIIIKNCDKPLLNFKEMEMQTKCDLELRLLTSSYDSDFHSSLDESSSSEISQPKQESQILTIFYNGHMCVSSDLTHLEANAILSLASRDVEEKSLSLRSSDGSDPPTIPNNSTRFHYQKASMKRSLHSFLQKRSLRIQATSPYHRYR
B6: JAZ10 fused with the activation domain (AD) in pB42AD (protein, UniProt Q93ZM9 1-197)
chain: MSKATIELDFLGLEKKQTNNAPKPKFQKFLDRRRSFRDIQGAISKIDPEIIKSLLASTGNNSDSSAKSRSVPSTPREDQPQIPISPVHASLARSSTELVSGTVPMTIFYNGSVSVFQVSRNKAGEIMKVANEAASKKDESSMETDLSVILPTTLRPKLFGQNLEGDLPIARRKSLQRFLEKRKERLVSTSPYYPTSA

In one assay the target is T1, cLUC-MYB24 (Arabidopsis thaliana). As to the kind of experiment: split reporter; firefly luciferase complementation imaging (LCI); nLUC and cLUC fusions co-infiltrated by Agrobacterium into N. benthamiana leaves; LUC signals detected 60 h after co-infiltration.
Consider JAZ5-nLUC (from UniProt Q9LDU5), for which the binding entry is on record as “binds”.

Another assay addresses T2, cLUC-MYB21 (Arabidopsis thaliana). The assay is described as above.
Regarding JAZ5-nLUC (from UniProt Q9LDU5), the binding entry was “binds”.

A further assay has as its target MYB21NT fused with the DNA binding domain (BD) in pLexA (Arabidopsis thaliana) (UniProt Q9LK95). Briefly: two-hybrid; Matchmaker LexA Two-Hybrid System (Clontech) in yeast; MYB21NT or MYB24NT fused with BD in pLexA, partners fused with AD in pB42AD.
As to “JAZ2 fused with the activation domain (AD) in pB42AD (from UniProt Q9S7M2)”, the binding entry is on record as “binds”.
Still for that read-out and setting: in the case of “JAZ5 fused with the activation domain (AD) in pB42AD (from UniProt Q9LDU5)” it was “binds”.
With “JAZ6 fused with the activation domain (AD) in pB42AD (from UniProt Q9C9E3)”, the binding entry was “binds”.
With “JAZ12 fused with the activation domain (AD) in pB42AD (from UniProt Q9C5K8)”, the binding entry was “binds”.
Regarding B1, the binding result was “binds”.
Take B2: the binding entry is given as “no binding”.
B3: the binding entry is on record as “binds”.
Still for that read-out and setting: in the case of B4 it was “binds”.
The same measure, in the same setting: next, B5: “no binding”; B6: “binds”.
